Assay results taken from PMC5290327, “SC83288 is a clinical development candidate for the treatment of severe malaria” (Nature Communications, 2017).

Biological target: GABA (non-selective)
Experiment: Radioligand binding
Settings: control compound
Procedure: The study was carried out by Cerep (Celle l'Evescault, France). An in vitro pharmacological profiling panel was designed to detect potential high-risk clinical adverse drug reactions. The panel comprised of 54 targets.
The specific ligand binding to the receptors was defined as the difference between the total binding and the non-specific binding determined in the presence of an excess of unlabelled ligand. Results were expressed as a per cent of control specific binding and as a per cent inhibition of control specific obtained in the presence of the test compounds. Results showing an inhibition (or stimulation) >50% were considered to represent significant effects of the test compounds. […] The IC50 values were determined by non-linear regression analysis of the competition curves generated with mean replicate values using Hill equation curve fitting. The inhibition constants (Ki) were calculated using the Cheng Prusoff equation.

NCCCC(=O)O [GABA, reference compound]
IC50 (read-out: Control specific binding IC50): 16 nM
Ki (read-out: Control specific binding Ki): 9.5 nM
